In patent US20110064661A1, “NON-RADIOACTIVE PHOSPHOLIPID COMPOUNDS, COMPOSITIONS, AND METHODS OF USE” (priority 2009, published 2011):
At least one compound was matched to its structure with a doubt left.

Tested on: A549 tumor (human non small cell lung cancer)
Experiment: A549 xenograft, CLR1401 versus erlotinib (Example 6)
Format: in vivo, athymic nude mice
Conditions: 0.38 mg weekly for five weeks, FIG. 16, P=0.002

C[N+](C)(C)CCOP(=O)([O-])OCCCCCCCCCCCCCCCCCCc1ccc(I)cc1 [^127I-CLR1401, 18-(p-Iodophenyl)octadecyl phosphocholine]
survival compared to saline or erlotinib (Kaplan Meier, log rank): survival benefit
